Drawing on PubChem BioAssay AID662 (National Center for Advancing Translational Sciences (NCATS), 2007), this text covers AC50 for 64 molecules.

Some of the results follow. The main result of the screen is listed elsewhere. These columns were measured beside it and carry no call. Compounds called inactive in the main read-out are mostly missing here. The note in brackets gives the kind of curve behind each potency; many fits are weak.

A short description of this assay: Cell signaling CRE-BLA (Fsk stim). The following applies: CHO CRE-bla reporter (cAMP response element driving beta-lactamase), forskolin EC10, beta-lactamase ratio; measured here: 460 nm blue channel. In outline: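 Using CellSensor CRE-bla CHO cells in Opti-MEM with 0.5% dialyzed FBS, compounds were titrated with EC10 NKH 477 for 3 h at 37 °C. CCF4 ratio (460/530 nm) gave %Activity; AC50 derived.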
As for `CCN1CCCC1CNc1ncnc2c1[nH]c1ccc(Cl)cc12` (centres undefined), the AC50 is 12.6 µM [rising, single point]. Regarding `CCn1c(=N)c(S(=O)(=O)c2ccc(F)cc2)cc2c(=O)n3ccccc3nc21`, the AC50 is 2 µM [rising, full curve].

On to `CCNc1ncc2nc(-c3ccccc3)c(=O)n(Cc3cccs3)c2n1`, for which the AC50 was 3.16 µM [rising, full curve].

Regarding `COc1ccc(NC(=O)C2CCCN2S(=O)(=O)c2ccc3c(c2)CCC(=O)N3)c(OC)c1` (centres undefined), the AC50 was 10 µM [rising, single point].

For `CCc1nc(N2CCC(C)CC2)c2oc3ccccc3c2n1`, the AC50 was 10 µM [rising, partial curve]. The value for `CC(=O)N1c2ccccc2N(Cc2ccc(C)cc2C)C(=O)C1(C)C` was 10 µM [rising, partial curve].

As to `COc1ccccc1-c1cc(C(F)(F)F)nc(S(=O)(=O)CCCC(=O)Nc2cc(C)on2)n1`, the AC50 is 2.51 µM [falling, full curve]. The value for `CCCCN(Cc1cc2cc(OC)ccc2[nH]c1=O)C(=O)c1ccco1` was 25.1 µM [rising, single point]; that for `COc1cc(-c2nc3oc4ccccc4c(=O)c3c(=O)n2Cc2ccco2)cc(OC)c1OC` was 2 µM [rising, full curve]. `Cc1onc(-c2ccccc2)c1C(=O)NCCc1c[nH]c2ccccc12`: the AC50 is 0.0794 µM [falling, full curve, poor fit]. In the case of `COc1cc2c(cc1OC)CN(C(=O)C1(c3ccccc3)CC1)CC2`, the AC50 was 10 µM [rising, single point]. The figure for `O=C(NCc1cccs1)C1CCN(c2ccc(S(=O)(=O)N3CCOCC3)cc2Cl)CC1` is 10 µM [rising, single point]. As to `COC(=O)[C@@]1(Cc2ccccc2)[C@H]2c3cc(C(=O)N(C)C)n(Cc4ccc(O)c(OC)c4)c3C[C@H]2CN1C(=O)c1ccccc1`, the AC50 is 6.31 µM [rising, partial curve]. Regarding `CCCCn1c(SCC(=O)Nc2cc(C)[nH]n2)nc2ccsc2c1=O`, the AC50 was 25.1 µM [rising, single point]. As for `CC(C)C[C@@H](CC(=O)N[C@@H](CCC(=O)O)CC(=O)O)NC(=O)[C@@H]1CNCC[C@H]1NC(=O)C[C@H](CCCN)NC(=O)C[C@H](CO)NC(=O)[C@@H]1CNCC[C@H]1N`, the AC50 is 5.01 µM [falling, partial curve, poor fit]. The value for `COc1cc(-c2noc(-c3ccccc3C(=O)NCc3ccco3)n2)cc(OC)c1OC` was 5.01 µM [rising, partial curve]. As to `CCCCC(CC)CNC(=O)CCS(=O)(=O)c1cccc2nonc12` (centres undefined), the AC50 is 0.1 µM [falling, full curve]. The figure for `CCOC(=O)CCNC(=O)Nc1ccc2nc(C)n(Cc3cccc(Cl)c3)c(=O)c2c1` is 12.6 µM [rising, partial curve]; for `Cn1c2ccccc2c2c(C(=O)NCc3ccco3)cn(C3CCCCC3)c(=O)c21` it is 7.94 µM [rising, partial curve]. Turning to `COc1cccc2c1C(=O)c1c(O)c3c(c(O)c1C2=O)C[C@@](O)(C(C)=O)C[C@@H]3O[C@H]1C[C@H](N)[C@H](O)[C@H](C)O1`, the AC50 was 20 µM [falling, partial curve, poor fit].

With `O=C(COC(=O)c1cc(=O)[nH]c2ccccc12)NC(=O)NC1CCCCC1`, the AC50 is 3.16 µM [falling, partial curve]. With `COc1ccc(C(=O)Nc2ccccc2C(N)=O)cc1`, the AC50 was 12.6 µM [rising, partial curve]. For `CSc1nc(-c2ccco2)cc(-c2ccccc2)c1C#N`, the AC50 was 15.8 µM [rising, partial curve, poor fit]. Regarding `CNc1nc(-c2ccccc2C(F)(F)F)nc2ccccc12`, the AC50 is 10 µM [rising, partial curve]. The figure for `Cc1occc1-c1nnc(SCC(=O)NCC2CCCO2)n1C` (centres undefined) is 12.6 µM [rising, single point]; for `O=C(Nn1cnnc1)c1cc2cc(Br)ccc2oc1=O` it is 25.1 µM [rising, single point]. `Cc1nc2cc(C(=O)NCCN3CCOCC3)ccc2n1-c1ccc(F)cc1F`: the AC50 was 25.1 µM [rising, single point].

In the case of `Cc1cccc(Cl)c1NC[C@H](O)CN1CCN(C)CC1`, the AC50 was 0.0251 µM [rising, single point]. The value for `CCOC(=O)C1=C(C)NC(SCc2cc(=O)[nH][nH]2)=C(C#N)C1c1cccs1` (centres undefined) was 5.01 µM [falling, partial curve]. The figure for `COc1ccc2[nH]c(=O)c(CN(CCO)C(=O)c3ccccc3F)cc2c1` is 25.1 µM [falling, single point]. On to `CC(C)c1ccccc1NC(=O)CCCC(=O)O`, for which the AC50 is 0.631 µM [rising, single point]. The figure for `COc1ccc2c(C)c(Cl)c(=O)oc2c1` is 15.8 µM [rising, partial curve]. The value for `CCCn1cnc2c(SCc3ccc(Cl)cc3)nc(N)nc21` was 3.98 µM [rising, partial curve]; that for `O=C1CN(C(=O)COC(=O)c2ccccc2NC(=O)c2ccco2)c2ccccc2N1` was 10 µM [rising, partial curve]; that for `COc1ccc(-n2c(=O)c(-c3cccs3)nc3cnc(Nc4ccccc4)nc32)cc1` was 5.01 µM [rising, partial curve]. For `CNc1nc(-c2cccc(NS(C)(=O)=O)c2)nc2ccccc12`, the AC50 was 6.31 µM [rising, partial curve]. The figure for `COc1cc(NC(=O)c2cccc3c2C(=O)N(Cc2cccnc2)C3)cc(OC)c1OC` is 2.51 µM [rising, partial curve]; for `Nc1nc2c3ccccc3nc(C3CC3)n2n1` it is 25.1 µM [rising, single point]; for `COCCN(CC(=O)NCc1ccccc1)C(=O)CCC(=O)Nc1ccccn1` it is 0.00316 µM [falling, full curve, poor fit]. With `CC(C#N)On1c(SC(C)C#N)nc2ccccc2c1=O` (centres undefined), the AC50 was 25.1 µM [rising, single point]. Consider `Cc1cc(C)c2c(c1)-c1cc(C)nn1C(c1ccc3c(c1)OCO3)N2` (centres undefined), for which the concentration at half-maximal activity (AC50) is 5.01 µM [falling, single point]. The figure for `O=C(Nc1nc(-c2nc3ccccc3s2)cs1)c1ccc(S(=O)(=O)N2CCOCC2)cc1` is 5.01 µM [falling, full curve].

With `CCOC(=O)c1c(C)[nH]c(C)c1C(=O)Cn1nnc(-c2ccccc2C)n1`, the AC50 was 12.6 µM [rising, partial curve]. As to `CC(=O)c1ccc(Nc2nc(C)nc3c2oc2ccccc23)cc1`, the AC50 was 2 µM [rising, full curve]. Take `COCCN1C=C(C(=O)OC)C(c2cc3c(cc2Br)OCO3)C(C(=O)OC)=C1`: the AC50 was 10 µM [rising, partial curve].

As to `CC(C)N(C(=O)CSc1nnnn1C1CCCC1)C(C)C`, the half-maximal activity concentration (AC50) was 3.16 µM [falling, single point]. With `CCOC(=O)c1cc2c(ccn2C)n1CC(=O)N1CCN(c2ccc(F)cc2)CC1`, the AC50 was 25.1 µM [falling, partial curve, poor fit]. `COc1ccc(-c2nc3cnc(N(C)C)nc3n(-c3ccccc3)c2=O)cc1`: the AC50 was 2 µM [rising, full curve].

For `COC(=O)[C@@]1(Cc2ccc(OC)cc2)[C@H]2c3cc(C(=O)N(C)C)n(Cc4cc(C)n(C)n4)c3C[C@H]2CN1C(=O)c1ccccc1`, the AC50 is 12.6 µM [rising, partial curve]. Take `CC(=O)C1=C(C)NC(SCC(=O)c2ccc(C)cc2)=C(C#N)C1c1ccco1` (centres undefined): the AC50 was 2 µM [rising, full curve].

As to `Cc1noc(C)c1C(=O)N1CCC[C@@]2(CCN(c3cccc(-c4ccccc4)c3)C2)C1`, the AC50 was 12.6 µM [rising, single point].

On to `Cc1cccc(N2CCN(C(=O)c3cc4c(=O)n(C)c5ccccc5c4n3C)CC2C)c1` (centres undefined), for which the AC50 was 12.6 µM [falling, single point].

With `Cc1noc(C)c1CSc1nc2sc(C)c(C)c2c(=O)n1C1CCCC1`, the AC50 is 2 µM [rising, partial curve]. As to `COc1ccc(S(=O)(=O)N(CC(=O)Nc2ccc3c(c2)OCO3)c2ccccc2OC)cc1`, the AC50 was 25.1 µM [falling, single point]. Regarding `CCOc1ccc(-c2[nH]nc3c2C(c2ccc4c(c2)OCO4)C(C#N)=C(N)O3)cc1OC` (centres undefined), the AC50 was 0.794 µM [rising, full curve]. As to `Cc1cccnc1-n1c(CCN2C(=O)c3ccccc3C2=O)nc2ccccc2c1=O`, the AC50 was 12.6 µM [rising, single point]. Consider `O=C(C1CCC1)N1CCc2cc(S(=O)(=O)NC3CCCC3)ccc21`, for which the AC50 was 10 µM [rising, single point]. For `Cc1nn(C)cc1CNC(=O)c1cnn2c(C(F)F)cc(C3CC3)nc12`, the AC50 was 7.94 µM [rising, partial curve]. With `CCC1(C)Cc2c(sc3nc4n(c(=O)c23)CCCS4)CO1` (centres undefined), the half-maximal activity concentration (AC50) was 0.00631 µM [falling, full curve, poor fit]. For the molecule `COc1ccccc1N1CCN(C(=O)CSc2ccc3c(C)cc(C)nc3n2)CC1`, the AC50 is 15.8 µM [rising, single point]. The figure for `COCCn1c(=O)cnc2cnc(Nc3ccccc3)nc21` is 2.51 µM [falling, full curve]; for `Nc1ccccc1NC(=O)c1ccccc1` it is 0.316 µM [rising, partial curve]; for `Cn1c(=N)c(S(=O)(=O)c2ccccc2)cc2c(=O)n3ccccc3nc21` it is 2.51 µM [rising, full curve]. For the molecule `Cc1c(CN2CCCCC2C)c(=O)n(-c2ccccc2)n1C` (centres undefined), the AC50 was 0.00794 µM [falling, full curve, poor fit].

What is called AC50 is the concentration at which the activity in the assay is half-maximal.
